Data reported in patent US10525105B2 (Guangzhou Link Health Pharma Co., Ltd., priority 2016, dated 2020).
Some peptides are written in HELM: one residue between dots, names in brackets for other building blocks, links after the first $.

Assay: peptide made by a vendor
Details: whole synthesis, HPLC

HELM PEPTIDE1{[dQ].L.K.H.R.N.[N=C(N)NCCCC[C@H](N[*:1])C(=O)[*:2]].H.R.I.K.T.G.S.T.N.H.G.L.V.Q.S.L.[am]}$$$$V2.0 (N-terminus assumed; SMILES CC[C@H](C)[C@H](NC(=O)[C@H](CCCNC(=N)N)NC(=O)[C@H](Cc1c[nH]cn1)NC(=O)[C@H](CCCCNC(=N)N)NC(=O)[C@H](CC(N)=O)NC(=O)[C@H](CCCNC(=N)N)NC(=O)[C@H](Cc1c[nH]cn1)NC(=O)[C@H](CCCCN)NC(=O)[C@H](CC(C)C)NC(=O)[C@H](N)CCC(N)=O)C(=O)N[C@@H](CCCCN)C(=O)N[C@H](C(=O)NCC(=O)N[C@@H](CO)C(=O)N[C@H](C(=O)N[C@@H](CC(N)=O)C(=O)N[C@@H](Cc1c[nH]cn1)C(=O)NCC(=O)N[C@@H](CC(C)C)C(=O)N[C@H](C(=O)N[C@@H](CCC(N)=O)C(=O)N[C@@H](CO)C(=O)N[C@@H](CC(C)C)C(N)=O)C(C)C)[C@@H](C)O)[C@@H](C)O)
purity (crude or final not stated): larger than 98%
